The supplement of paper PMC10849652
The list shows a part of the results.

The chains behind the UniProt entries cited, without tags or fusion partners. Where a name states a change or a piece, a line headed by the entry shows the natural chain unless it says otherwise.
UniProt Q15438: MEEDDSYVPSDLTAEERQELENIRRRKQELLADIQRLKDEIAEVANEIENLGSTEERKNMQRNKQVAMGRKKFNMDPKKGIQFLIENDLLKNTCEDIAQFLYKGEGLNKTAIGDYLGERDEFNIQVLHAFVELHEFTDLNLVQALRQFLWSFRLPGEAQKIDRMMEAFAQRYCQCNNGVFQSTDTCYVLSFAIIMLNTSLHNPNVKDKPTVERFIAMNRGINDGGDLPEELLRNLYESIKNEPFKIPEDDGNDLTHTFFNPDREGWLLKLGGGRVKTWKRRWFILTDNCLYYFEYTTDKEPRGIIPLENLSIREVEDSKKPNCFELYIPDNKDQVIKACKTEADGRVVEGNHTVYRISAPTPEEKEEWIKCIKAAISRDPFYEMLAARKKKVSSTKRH
UniProt Q15828: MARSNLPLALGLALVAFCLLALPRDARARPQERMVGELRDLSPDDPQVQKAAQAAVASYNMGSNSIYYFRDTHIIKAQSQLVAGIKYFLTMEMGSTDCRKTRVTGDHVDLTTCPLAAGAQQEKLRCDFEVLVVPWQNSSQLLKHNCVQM
UniProt O95196: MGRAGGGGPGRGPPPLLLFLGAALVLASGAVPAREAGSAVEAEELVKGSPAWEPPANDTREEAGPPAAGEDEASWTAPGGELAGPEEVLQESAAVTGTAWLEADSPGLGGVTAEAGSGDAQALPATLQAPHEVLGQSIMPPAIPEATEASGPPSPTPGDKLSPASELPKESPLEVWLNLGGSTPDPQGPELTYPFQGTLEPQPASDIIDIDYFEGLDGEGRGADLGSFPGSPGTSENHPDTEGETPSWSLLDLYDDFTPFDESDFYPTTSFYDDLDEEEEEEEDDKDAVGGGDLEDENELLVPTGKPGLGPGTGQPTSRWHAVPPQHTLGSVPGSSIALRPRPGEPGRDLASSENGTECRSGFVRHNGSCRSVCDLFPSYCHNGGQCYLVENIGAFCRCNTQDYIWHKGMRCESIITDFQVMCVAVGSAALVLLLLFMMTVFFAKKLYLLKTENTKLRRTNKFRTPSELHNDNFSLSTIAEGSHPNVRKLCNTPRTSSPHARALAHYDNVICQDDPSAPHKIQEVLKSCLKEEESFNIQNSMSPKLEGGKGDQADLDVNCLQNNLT
UniProt P01036: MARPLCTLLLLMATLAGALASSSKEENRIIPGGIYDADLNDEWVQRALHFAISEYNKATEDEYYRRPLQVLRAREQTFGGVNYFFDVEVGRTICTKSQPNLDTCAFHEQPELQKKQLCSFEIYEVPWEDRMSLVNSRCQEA
UniProt Q99418: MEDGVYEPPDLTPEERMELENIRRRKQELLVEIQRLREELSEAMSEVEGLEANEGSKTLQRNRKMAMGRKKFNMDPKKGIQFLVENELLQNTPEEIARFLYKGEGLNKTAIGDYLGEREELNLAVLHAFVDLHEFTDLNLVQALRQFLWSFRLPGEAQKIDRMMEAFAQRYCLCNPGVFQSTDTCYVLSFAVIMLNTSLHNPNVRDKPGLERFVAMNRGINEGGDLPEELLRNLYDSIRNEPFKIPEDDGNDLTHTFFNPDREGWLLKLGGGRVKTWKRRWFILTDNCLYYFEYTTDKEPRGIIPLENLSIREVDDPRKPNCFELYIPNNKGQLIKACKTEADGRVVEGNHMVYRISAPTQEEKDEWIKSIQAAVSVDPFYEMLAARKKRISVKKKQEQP
UniProt Q9NXE8: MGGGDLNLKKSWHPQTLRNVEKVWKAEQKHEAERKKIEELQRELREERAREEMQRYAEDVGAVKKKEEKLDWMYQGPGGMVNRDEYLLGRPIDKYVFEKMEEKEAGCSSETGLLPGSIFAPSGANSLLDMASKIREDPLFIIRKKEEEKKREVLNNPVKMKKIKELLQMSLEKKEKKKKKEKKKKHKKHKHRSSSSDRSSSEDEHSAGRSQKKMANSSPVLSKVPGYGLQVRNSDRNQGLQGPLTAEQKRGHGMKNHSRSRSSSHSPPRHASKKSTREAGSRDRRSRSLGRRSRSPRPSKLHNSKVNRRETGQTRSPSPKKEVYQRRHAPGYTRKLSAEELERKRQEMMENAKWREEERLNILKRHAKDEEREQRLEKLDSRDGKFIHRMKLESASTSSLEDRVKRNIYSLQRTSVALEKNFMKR
UniProt Q9H9R9: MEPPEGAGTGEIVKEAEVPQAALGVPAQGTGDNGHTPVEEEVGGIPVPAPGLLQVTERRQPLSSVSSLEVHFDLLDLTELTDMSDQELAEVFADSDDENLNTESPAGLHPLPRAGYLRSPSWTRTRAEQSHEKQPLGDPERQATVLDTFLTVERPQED
UniProt P53355: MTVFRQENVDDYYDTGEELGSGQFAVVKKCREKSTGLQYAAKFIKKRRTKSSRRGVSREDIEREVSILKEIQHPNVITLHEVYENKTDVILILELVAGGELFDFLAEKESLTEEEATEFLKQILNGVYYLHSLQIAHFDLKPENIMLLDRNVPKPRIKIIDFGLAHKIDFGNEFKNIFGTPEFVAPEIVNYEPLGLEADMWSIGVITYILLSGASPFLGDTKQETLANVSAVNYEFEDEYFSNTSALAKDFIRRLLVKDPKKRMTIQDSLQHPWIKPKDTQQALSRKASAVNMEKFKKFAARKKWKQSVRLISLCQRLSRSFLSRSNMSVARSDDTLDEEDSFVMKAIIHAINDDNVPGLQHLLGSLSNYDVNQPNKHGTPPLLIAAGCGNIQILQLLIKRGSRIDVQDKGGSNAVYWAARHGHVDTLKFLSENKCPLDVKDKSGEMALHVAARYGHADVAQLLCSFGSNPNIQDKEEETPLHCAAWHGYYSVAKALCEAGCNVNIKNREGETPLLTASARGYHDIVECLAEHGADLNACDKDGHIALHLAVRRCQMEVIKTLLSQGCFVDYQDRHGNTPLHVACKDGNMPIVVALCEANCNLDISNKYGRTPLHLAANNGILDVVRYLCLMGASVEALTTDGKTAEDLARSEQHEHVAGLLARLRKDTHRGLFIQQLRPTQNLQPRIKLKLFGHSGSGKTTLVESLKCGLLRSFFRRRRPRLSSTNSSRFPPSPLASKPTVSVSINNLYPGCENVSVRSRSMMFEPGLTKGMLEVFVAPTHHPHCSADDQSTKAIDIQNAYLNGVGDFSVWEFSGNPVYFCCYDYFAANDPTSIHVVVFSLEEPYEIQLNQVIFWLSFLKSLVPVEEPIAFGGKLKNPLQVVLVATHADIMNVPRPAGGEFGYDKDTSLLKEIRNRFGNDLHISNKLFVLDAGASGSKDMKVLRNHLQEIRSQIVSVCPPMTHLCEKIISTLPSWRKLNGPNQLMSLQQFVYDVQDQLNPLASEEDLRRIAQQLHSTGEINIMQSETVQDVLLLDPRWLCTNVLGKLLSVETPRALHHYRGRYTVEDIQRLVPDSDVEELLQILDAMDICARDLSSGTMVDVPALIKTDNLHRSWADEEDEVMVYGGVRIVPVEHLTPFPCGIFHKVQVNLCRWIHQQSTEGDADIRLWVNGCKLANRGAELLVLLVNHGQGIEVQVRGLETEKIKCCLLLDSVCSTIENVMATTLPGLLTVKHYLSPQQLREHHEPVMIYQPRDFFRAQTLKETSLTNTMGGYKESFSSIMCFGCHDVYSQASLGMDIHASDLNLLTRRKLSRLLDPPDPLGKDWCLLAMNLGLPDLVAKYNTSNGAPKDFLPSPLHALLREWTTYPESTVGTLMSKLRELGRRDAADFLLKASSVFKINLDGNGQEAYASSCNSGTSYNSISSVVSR
UniProt O95715: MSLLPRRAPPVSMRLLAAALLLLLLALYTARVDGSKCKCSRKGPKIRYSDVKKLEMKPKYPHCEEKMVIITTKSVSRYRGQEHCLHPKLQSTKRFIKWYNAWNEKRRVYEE
UniProt O43310: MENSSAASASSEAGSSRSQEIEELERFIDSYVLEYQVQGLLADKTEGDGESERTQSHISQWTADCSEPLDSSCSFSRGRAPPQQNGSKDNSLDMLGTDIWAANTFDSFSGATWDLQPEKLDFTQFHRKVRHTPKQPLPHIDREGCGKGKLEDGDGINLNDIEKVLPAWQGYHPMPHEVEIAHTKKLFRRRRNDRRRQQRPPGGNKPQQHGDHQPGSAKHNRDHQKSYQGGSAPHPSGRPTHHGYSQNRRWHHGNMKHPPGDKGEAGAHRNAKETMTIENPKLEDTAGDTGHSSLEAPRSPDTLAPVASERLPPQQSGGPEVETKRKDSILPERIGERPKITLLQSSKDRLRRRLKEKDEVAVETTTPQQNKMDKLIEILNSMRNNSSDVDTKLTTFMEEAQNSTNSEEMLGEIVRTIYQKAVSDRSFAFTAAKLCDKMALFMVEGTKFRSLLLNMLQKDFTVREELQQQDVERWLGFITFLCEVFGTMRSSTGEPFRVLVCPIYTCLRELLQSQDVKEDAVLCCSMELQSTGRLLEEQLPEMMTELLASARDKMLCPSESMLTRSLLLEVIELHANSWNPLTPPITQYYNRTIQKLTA
UniProt Q86T65: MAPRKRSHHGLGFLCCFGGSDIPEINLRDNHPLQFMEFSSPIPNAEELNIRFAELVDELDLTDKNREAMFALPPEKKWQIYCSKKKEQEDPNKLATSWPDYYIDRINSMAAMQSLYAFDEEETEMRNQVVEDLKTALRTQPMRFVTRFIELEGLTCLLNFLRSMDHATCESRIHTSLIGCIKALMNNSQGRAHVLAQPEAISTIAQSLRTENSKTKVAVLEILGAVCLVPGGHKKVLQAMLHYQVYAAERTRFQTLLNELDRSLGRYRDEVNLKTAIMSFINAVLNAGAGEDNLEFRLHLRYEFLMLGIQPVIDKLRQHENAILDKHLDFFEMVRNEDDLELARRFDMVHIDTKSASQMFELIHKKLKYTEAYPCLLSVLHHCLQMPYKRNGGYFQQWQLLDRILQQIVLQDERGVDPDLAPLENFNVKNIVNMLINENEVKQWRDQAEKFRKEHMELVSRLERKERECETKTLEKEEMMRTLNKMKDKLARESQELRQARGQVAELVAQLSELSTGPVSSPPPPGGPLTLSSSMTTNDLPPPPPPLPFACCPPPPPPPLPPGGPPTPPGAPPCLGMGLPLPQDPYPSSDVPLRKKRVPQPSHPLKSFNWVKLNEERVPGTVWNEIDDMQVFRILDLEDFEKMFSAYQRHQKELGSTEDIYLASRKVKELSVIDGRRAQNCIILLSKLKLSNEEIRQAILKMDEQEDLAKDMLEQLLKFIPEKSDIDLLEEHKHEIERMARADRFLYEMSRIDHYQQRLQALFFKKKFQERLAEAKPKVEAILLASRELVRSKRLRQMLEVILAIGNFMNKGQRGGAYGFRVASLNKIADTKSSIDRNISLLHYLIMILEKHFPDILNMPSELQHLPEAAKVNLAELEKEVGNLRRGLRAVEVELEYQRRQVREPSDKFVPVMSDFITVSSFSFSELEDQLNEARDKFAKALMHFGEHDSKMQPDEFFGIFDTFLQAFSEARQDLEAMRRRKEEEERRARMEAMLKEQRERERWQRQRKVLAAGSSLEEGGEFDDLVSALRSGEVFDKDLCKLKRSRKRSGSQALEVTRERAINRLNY
UniProt Q8IZD4: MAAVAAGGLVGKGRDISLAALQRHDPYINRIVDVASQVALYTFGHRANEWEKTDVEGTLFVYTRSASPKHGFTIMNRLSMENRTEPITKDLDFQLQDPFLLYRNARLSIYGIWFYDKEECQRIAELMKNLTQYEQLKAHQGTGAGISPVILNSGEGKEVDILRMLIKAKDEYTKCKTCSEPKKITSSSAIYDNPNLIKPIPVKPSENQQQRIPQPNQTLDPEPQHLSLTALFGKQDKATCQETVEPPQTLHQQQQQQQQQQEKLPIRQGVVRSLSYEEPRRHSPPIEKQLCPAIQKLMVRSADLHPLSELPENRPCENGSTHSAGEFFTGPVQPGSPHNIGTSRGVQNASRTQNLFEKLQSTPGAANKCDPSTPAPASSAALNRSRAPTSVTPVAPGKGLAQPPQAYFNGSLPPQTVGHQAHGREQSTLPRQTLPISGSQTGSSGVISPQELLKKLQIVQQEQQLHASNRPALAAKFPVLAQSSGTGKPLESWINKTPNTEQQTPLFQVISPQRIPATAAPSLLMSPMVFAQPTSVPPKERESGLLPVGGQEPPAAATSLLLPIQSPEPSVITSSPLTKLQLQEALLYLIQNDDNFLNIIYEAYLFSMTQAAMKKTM
UniProt Q5H9S7: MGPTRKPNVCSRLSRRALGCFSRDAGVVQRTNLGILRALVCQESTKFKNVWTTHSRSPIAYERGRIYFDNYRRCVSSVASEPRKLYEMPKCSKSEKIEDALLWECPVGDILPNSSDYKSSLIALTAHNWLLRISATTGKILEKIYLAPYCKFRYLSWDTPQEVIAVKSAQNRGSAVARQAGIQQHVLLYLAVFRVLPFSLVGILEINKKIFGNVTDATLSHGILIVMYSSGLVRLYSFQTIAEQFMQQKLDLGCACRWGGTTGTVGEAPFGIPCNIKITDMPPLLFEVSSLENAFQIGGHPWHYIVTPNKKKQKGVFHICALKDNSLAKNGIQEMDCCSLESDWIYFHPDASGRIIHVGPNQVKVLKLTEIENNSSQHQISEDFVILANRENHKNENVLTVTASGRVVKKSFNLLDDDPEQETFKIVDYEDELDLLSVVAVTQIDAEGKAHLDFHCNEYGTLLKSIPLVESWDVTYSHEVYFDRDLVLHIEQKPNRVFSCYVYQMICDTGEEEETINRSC

Tests used:
Assay in all cases: log2 fold change, soluble protein after heating vs DMSO (PISA); higher = thermal stabilisation; K562 cells, 10 uM, 30 min; active = over 0.2 and 3.5 SD of the protein, either way, in both replicates (recomputed)
alvocidib = compound: CN1CC[C@H](c2c(O)cc(O)c3c(=O)cc(-c4ccccc4Cl)oc23)[C@H](O)C1 [alvocidib]
Summary of the method: (§1)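 Thermal stability values are relative to control samples and come from duplicates. They are expressed as log2 fold changes. For measurement, K562 cells (2×10^6 cells/mL) received 10 μM compound for 30 min, and aliquots were heated for 3 min over 48°C-58°C, pooled, and extracted at 4°C in PBS with 0.5% NP-40. Soluble protein, the supernatant after 21,000xg for 90 min, was quantified by TMTpro 16plex LC-MS/MS with equalised channel sums.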

Tubastatin A = compound: CN1CCc2c(c3ccccc3n2Cc2ccc(C(=O)NO)cc2)C1 [Tubastatin A]
Summary of the method: as §1

rucaparib = compound: CNCc1ccc(-c2[nH]c3cc(F)cc4c3c2CCNC4=O)cc1 [rucaparib]
Summary of the method: as §1

encorafenib = compound: COC(=O)N[C@@H](C)CNc1nccc(-c2cn(C(C)C)nc2-c2cc(Cl)cc(NS(C)(=O)=O)c2F)n1 [encorafenib]
Summary of the method: as §1

zotarolimus = compound: CO[C@H]1C[C@@H]2CC[C@@H](C)[C@@](O)(O2)C(=O)C(=O)N2CCCC[C@H]2C(=O)O[C@H]([C@H](C)C[C@@H]2CC[C@H](n3cnnn3)[C@H](OC)C2)CC(=O)[C@H](C)/C=C(\C)[C@@H](O)[C@@H](OC)C(=O)[C@H](C)C[C@H](C)/C=C/C=C/C=C/1C [zotarolimus]
Summary of the method: as §1

gefitinib = compound: COc1cc2ncnc(Nc3ccc(F)c(Cl)c3)c2cc1OCCCN1CCOCC1 [gefitinib]
Summary of the method: as §1

saracatinib = compound: CN1CCN(CCOc2cc(OC3CCOCC3)c3c(Nc4c(Cl)ccc5c4OCO5)ncnc3c2)CC1 [saracatinib]
Summary of the method: as §1

defactinib = compound: CNC(=O)c1ccc(Nc2ncc(C(F)(F)F)c(NCc3nccnc3N(C)S(C)(=O)=O)n2)cc1 [defactinib]
Summary of the method: as §1

[1] = compound: CNc1nc(-c2ccc3c(N)n[nH]c3c2)cc(N2C[C@@H](C(=O)NC3CCCCC3)CC[C@H]2C)n1
Summary of the method: as §1

[2] = compound: COC(=O)[C@H](CCSC)NC(=O)C1=C(C=C(C=C1)NC[C@H](CS)N)C2=CC=CC=C2
Summary of the method: as §1

idasanutlin = compound: COc1cc(C(=O)O)ccc1NC(=O)[C@@H]1N[C@@H](CC(C)(C)C)[C@](C#N)(c2ccc(Cl)cc2F)[C@H]1c1cccc(Cl)c1F [idasanutlin]
Summary of the method: as §1

alisertib = compound: COc1cc(Nc2ncc3c(n2)-c2ccc(Cl)cc2C(c2c(F)cccc2OC)=NC3)ccc1C(=O)O [alisertib]
Summary of the method: as §1

[3] = compound: COc1cc2nc(-c3cc(F)ccc3O)nc(N[C@@H]3CNC[C@H]3C(C)(C)O)c2cc1OC
Summary of the method: as §1

[4] = compound: COc1cccc2cc(-c3nc([C@H]4CC[C@H](C(=O)O)CC4)n4ncnc(N)c34)[nH]c12
Summary of the method: as §1

lapatinib = compound: CS(=O)(=O)CCNCc1ccc(-c2ccc3ncnc(Nc4ccc(OCc5cccc(F)c5)c(Cl)c4)c3c2)o1 [lapatinib]
Summary of the method: as §1

sotrastaurin = compound: CN1CCN(c2nc(C3=C(c4c[nH]c5ccccc45)C(=O)NC3=O)c3ccccc3n2)CC1 [sotrastaurin]
Summary of the method: as §1

filanesib = compound: CON(C)C(=O)N1N=C(c2cc(F)ccc2F)S[C@@]1(CCCN)c1ccccc1 [filanesib]
Summary of the method: as §1

pictilisib = compound: CS(=O)(=O)N1CCN(Cc2cc3nc(-c4cccc5[nH]ncc45)nc(N4CCOCC4)c3s2)CC1 [pictilisib]
Summary of the method: as §1

[5] = compound: CNC(=O)C1=CC=CC=C1NC2=NC(=NC=C2Cl)NC3=C(C=C(C=C3)N4CCOCC4)OC
Summary of the method: as §1

[6] = compound: COC1=CC=C(C=C1)CN2C=CC3=C2C=C(C=C3)C(=O)NO
Summary of the method: as §1

Measured: log2 fold change

CYP2R1 (UniProt Q6VVX0)
inactive: alvocidib -0.227 | Tubastatin A -0.025 | rucaparib 0.218 | encorafenib -0.121 | zotarolimus -0.055 | gefitinib -0.099

CYTH1 (UniProt Q15438)
inactive: saracatinib 0.129 | Tubastatin A 0.016 | defactinib -0.029 | rucaparib 0.105 | [1] 0.004 | encorafenib -0.088 | [2] -0.011 | idasanutlin -0.123 | alisertib 0.13 | [3] -0.115 | [4] 0.063 | lapatinib -0.093

CST6 (UniProt Q15828)
inactive: sotrastaurin -0.013 | Tubastatin A -0.142 | rucaparib -0.161 | encorafenib -0.338 | filanesib -0.288 | alisertib 1.23 | gefitinib 0.108 | [4] -0.025

DCAF12 (UniProt Q5T6F0)
inactive: sotrastaurin 0.058 | rucaparib 0.199 | encorafenib 0.112 | filanesib -0.037 | alisertib 0.073 | [4] 0.036 | pictilisib 0.16

CTBP1 (UniProt E7ESU7)
inactive: [5] -0.015

CSPG5 (UniProt O95196)
inactive: sotrastaurin 0.147 | [5] -0.143 | rucaparib 0.009 | encorafenib -0.198 | filanesib 0.042 | [3] 0.073 | lapatinib 0.07

CST4 (UniProt P01036)
inactive: sotrastaurin 0.27 | alvocidib -0.231 | defactinib 0.085 | [2] 0.014 | filanesib -0.063 | zotarolimus 0.052 | alisertib 0.04 | gefitinib 0.054 | [4] 0.156

CYTH2 (UniProt Q99418)
inactive: saracatinib -0.197 | Tubastatin A 0.393 | [5] -0.031 | [1] -0.143 | [6] 0.112 | idasanutlin -0.095 | alisertib -0.16 | [3] -0.077 | [4] 0.025 | lapatinib 0.173

CYREN isoform 4 (UniProt Q9BWK5)
inactive: saracatinib -0.135 | defactinib 0.014 | [1] -0.142 | [2] 0.016 | [6] 0.122 | idasanutlin 0.029 | alisertib 0.441 | [3] 0.517 | [4] 0.023 | lapatinib -0.039 | pictilisib 0

DAPK2 isoform 2 (UniProt Q9UIK4)
inactive: sotrastaurin -0.019 | [6] -0.012 | filanesib 0.189 | alisertib -0.05 | [4] -0.091

CWC25 (UniProt Q9NXE8)
inactive: sotrastaurin 0.006 | alvocidib 0.393 | Tubastatin A -0.036 | [5] -0.052 | rucaparib 0.026 | encorafenib 0.197 | [6] 0 | filanesib 0.404 | zotarolimus -0.071 | idasanutlin 0.329 | alisertib -0.021 | gefitinib -0.062 | [4] -0.097 | pictilisib -0.092

CTNNBL1 (UniProt Q8WYA6)
inactive: defactinib -0.513 | rucaparib 0.137 | encorafenib 0.121 | [2] -0.19 | [3] -0.008 | lapatinib -0.581

2 successive entries out of the list so far, quoted:
DAPK2 isoform 2 (UniProt Q9UIK4)
inactive: sotrastaurin -0.019 | [6] -0.012 | filanesib 0.189 | alisertib -0.05 | [4] -0.091

CWC25 (UniProt Q9NXE8)
inactive: sotrastaurin 0.006 | alvocidib 0.393 | Tubastatin A -0.036 | [5] -0.052 | rucaparib 0.026 | encorafenib 0.197 | [6] 0 | filanesib 0.404 | zotarolimus -0.071 | idasanutlin 0.329 | alisertib -0.021 | gefitinib -0.062 | [4] -0.097 | pictilisib -0.092

(continued)

CYREN (UniProt Q9BWK5)
inactive: [5] 0.206 | defactinib -0.098 | rucaparib 0.005 | encorafenib 0.098 | [2] -0.085 | [6] 0.002 | alisertib 0.185 | gefitinib -0.009 | [4] 0.157 | pictilisib 0.094

DBNDD1 isoform 3 (UniProt Q9H9R9)
inactive: sotrastaurin -0.214 | [5] -0.132 | filanesib -0.011

DAPK1 isoform 3 (UniProt P53355)
inactive: sotrastaurin 0.035 | filanesib 0.031 | alisertib 0.04 | [3] 0.088 | [4] 0.002 | lapatinib -0.256

CXCL14 (UniProt O95715)
inactive: sotrastaurin 0.126 | [6] 0.2 | filanesib 0.075 | alisertib -0.308 | gefitinib -0.011 | [4] 0.23

CTDSP1 (UniProt Q9GZU7)
inactive: Tubastatin A 0.085 | [5] -0.018 | defactinib -0.092 | [2] -0.13 | gefitinib 0.062 | pictilisib -0.177

CTIF (UniProt O43310)
inactive: sotrastaurin 0.076 | alvocidib 0.093 | Tubastatin A 0.074 | defactinib 0.088 | [2] -0.391 | filanesib 0.171 | zotarolimus -0.167

DAAM2 (UniProt Q86T65)
inactive: saracatinib 0.054 | [5] -0.111 | [1] -0.022 | [6] -0.121 | gefitinib 0.029

DCP1B (UniProt Q8IZD4)
inactive: Tubastatin A 0.144

DCAF17 (UniProt Q5H9S7)
inactive: defactinib -0.01 | rucaparib -0.134 | encorafenib 0.023 | [2] -0.102

CYP24A1 (UniProt Q07973)
inactive: saracatinib -0.144 | Tubastatin A 0.365 | [5] -0.075 | defactinib 0.394 | rucaparib 0.115 | [1] 0.078 | encorafenib 0.075 | [2] 0.016 | [6] 0.1 | idasanutlin 0.039 | alisertib -0.095 | [3] 0.091 | gefitinib -0.044 | [4] -0.306 | lapatinib 0.067 | pictilisib -0.059

CSRP2 (UniProt Q16527)
inactive: sotrastaurin 0.095 | alvocidib -0.099 | Tubastatin A -0.051 | defactinib 0.007 | [2] -0.03 | filanesib -0.035 | zotarolimus 0.1 | idasanutlin 0.037
